Laboratory results taken from PMC8992272, “Stabilities of Three Key Biological Trisulfides with Implications for Their Roles in the Release of Hydrogen Sulfide and Bioaccumulation of Sulfane Sulfur” (ACS Omega, 2022).

Assay: H2S release in the presence of cysteine measured with an H2S-sensitive electrode
[1] = initial concentration 40 μM, excess cysteine, pH 6.7, uncapped
[2] = 50 μM trisulfide, 10 equiv cysteine, water buffered at pH 6.7, uncapped

Row | Structure (SMILES) | peak H2S concentration [1] | peaking time of H2S [1] | peak concentration of H2S [2] | peaking time of H2S [2]
1 | CC(=O)NC(CSSSSCC(NC(C)=O)C(=O)O)C(=O)O (stereo not drawn) [NAC tetrasulfide, N-Acetylcysteine Tetrasulfide] | 74 µM | 56 min | – | –
2 | CC(=O)N[C@@H](CSSSC[C@H](NC(C)=O)C(=O)O)C(=O)O [NAC trisulfide, N-Acetylcysteine Trisulfide] | – | – | 49 µM | 46 min
3 | N[C@@H](CSSSC[C@H](N)C(=O)O)C(=O)O [cysteine trisulfide, Cysteine Trisulfide] | – | – | 49 µM | 46 min
